Some entries share one result that the patent states for a list of compounds.
Target: T1, Aβ42 fibrils (Homo sapiens, UniProt P05067)
T1 construct: purchased rPeptide, Bogart, Ga., USA
Experiment: Surface plasmon resonance binding to immobilized Aβ42 fibrils
Details: Example 7; 1 and 3 μM; read-out: Kd, binding to Aβ fibrils
Text: SPR (Surface Plasmon Resonance) is a technique that can be used to measure the affinity of a substance for a substrate. The substrate (in this case Aβ fibrils) is bound to a solid surface and excited using a laser light source. The compound to be tested (e.g. PINPs) is allowed to flow over the bound substrate in suspension/solution and the emission spectra of the substrate will change if the compound binds. A second solution, without the test compound, can then added to elute any bound compound and the emission spectra may be observed to note loss of bound compound from the substrate. For a specific example regarding peptide binding to Aβ see reference (30).
In the examples presented here, The substance is introduced at a flow rate of 30 uL/min for 5 minute over the immobilized substrate. There is a spike in the signal which is due to the introduction of solvent without PINPs to show removal of the peptide bound to the Aβ fibrils. There are two plots related to addition of peptide at two different concentrations, 1 and 3 μM, plus a computer generated fitted curve for each one.
These experiments were conducted using a Sensi Q semi-automatic SPR machine (ICx Nomadics). This apparatus has two parallel flow cells; one was used to immobilize Aβ42 fibrils while the other was used as “reference” (empty surface). […]

Protein sequences, listed by entry. Tags and fused reporters are not part of them. Residues count along the entry.
UniProt P05067, 672-713 limits assumed: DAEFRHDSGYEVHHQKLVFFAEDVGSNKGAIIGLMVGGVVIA

PINPs: RI-OR2-TAT covalently attached to nanoliposomes (cholesterol:sphingomyelin [1:1] with 2.5% maleimide) via an additional cysteine (RGFFVLKGRRRRQRRKKRGYC; D-residues)
Kd: 15 to 75 nM

From patent US9579358B2, “Compositions for binding to amyloid proteins” (LANCASTER UNIVERSITY BUSINESS ENTERPRISES LIMITED, priority 2011, dated 2017)
